The values that follow come from paper PMC9549625.

Chains of the proteins cited; added tags and fusions are not shown.
UniProt P46937: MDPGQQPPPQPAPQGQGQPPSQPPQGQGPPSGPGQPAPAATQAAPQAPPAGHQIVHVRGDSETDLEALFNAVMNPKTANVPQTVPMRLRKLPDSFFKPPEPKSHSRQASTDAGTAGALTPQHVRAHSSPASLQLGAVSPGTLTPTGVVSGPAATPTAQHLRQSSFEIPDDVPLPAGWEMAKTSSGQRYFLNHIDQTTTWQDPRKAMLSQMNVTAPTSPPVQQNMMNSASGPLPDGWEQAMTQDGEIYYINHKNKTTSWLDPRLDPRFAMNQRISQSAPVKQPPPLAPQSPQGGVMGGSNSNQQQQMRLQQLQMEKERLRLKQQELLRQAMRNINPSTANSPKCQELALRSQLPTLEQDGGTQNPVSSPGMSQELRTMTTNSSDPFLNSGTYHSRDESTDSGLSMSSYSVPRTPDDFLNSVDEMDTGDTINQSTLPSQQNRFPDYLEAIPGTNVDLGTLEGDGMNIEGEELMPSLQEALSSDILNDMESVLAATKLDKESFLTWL
UniProt P49407: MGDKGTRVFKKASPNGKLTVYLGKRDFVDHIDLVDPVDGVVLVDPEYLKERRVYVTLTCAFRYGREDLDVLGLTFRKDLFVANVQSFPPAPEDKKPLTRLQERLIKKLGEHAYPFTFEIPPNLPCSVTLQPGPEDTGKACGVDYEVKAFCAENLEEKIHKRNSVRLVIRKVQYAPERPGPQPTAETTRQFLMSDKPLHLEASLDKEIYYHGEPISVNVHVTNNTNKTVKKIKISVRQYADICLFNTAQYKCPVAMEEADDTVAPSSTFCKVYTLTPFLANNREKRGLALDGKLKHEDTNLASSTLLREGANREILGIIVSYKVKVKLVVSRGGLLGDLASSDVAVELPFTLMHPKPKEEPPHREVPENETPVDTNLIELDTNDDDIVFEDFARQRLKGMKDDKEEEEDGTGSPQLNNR
UniProt P25490: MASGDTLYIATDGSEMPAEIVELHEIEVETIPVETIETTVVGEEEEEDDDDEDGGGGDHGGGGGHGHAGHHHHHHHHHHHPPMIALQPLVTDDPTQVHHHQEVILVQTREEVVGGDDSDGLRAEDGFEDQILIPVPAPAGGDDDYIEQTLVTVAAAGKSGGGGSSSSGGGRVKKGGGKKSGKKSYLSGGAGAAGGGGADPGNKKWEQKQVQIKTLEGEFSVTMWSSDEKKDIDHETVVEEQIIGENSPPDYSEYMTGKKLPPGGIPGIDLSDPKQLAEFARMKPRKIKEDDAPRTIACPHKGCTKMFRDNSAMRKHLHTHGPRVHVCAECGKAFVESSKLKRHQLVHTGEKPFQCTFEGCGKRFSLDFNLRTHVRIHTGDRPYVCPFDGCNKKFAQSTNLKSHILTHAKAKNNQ

For this assay, the target named is Yes-associated protein 1 (YAP1), endogenous (human (endogenous in HCT116)) (UniProt P46937). Nature of the assay: co-IP; endogenous proteins in HCT116 cell lysates; 3 µg primary antibody or normal rabbit IgG on protein A/G magnetic beads, incubated with protein lysates at 4 °C overnight; Western blot. A general note: A western blot detects proteins with antibodies after separation by electrophoresis.

No constants are given. Whether binding was seen depends on the method and setting. In cells and extracts the contact can be indirect. Some results given as binding are weak or reduced against the parent protein; the word gives no strength.

As to “β-arrestin1, endogenous (from UniProt P49407 1-418)”, the binding result is on record as “binds”.

For the substance “Yin Yang 1 (YY1), endogenous (from UniProt P25490 1-414)”, the binding entry was “binds”.
